Measured values as given in patent US12419871B2, “Biomolecules involved in Alzheimer's disease” (ELECTROPHORETICS LIMITED, priority 2015, dated 2025).

B1: P0C7P4 (protein, UniProt P0C7P4 1-283, looked up)
chain: MQQIYTVKEIRSVAARSGPFAPVLSATSRGVAGALRPLVQATVPATPEQPVLDLKRPFLSRESLSGQAVRRPLVASVGLNVPASVCYSHTDIKVPDFSEYRRLEVLDSTKSSRESTEARKGFSYLVTGVTTVGVAYAAKNAVTQFVSSMSASADVLALAKIEIKLSDIPEGKNMAFKWRGKPLFVRHRTQKEIKQEAAVELSQLRDPQHDLDRVKKPEWVILIGVCTHLGCVPIANAGDFGGYYCPCHGSHYDASGRIRLGPATLNLEVPTYEFTSDDMVIVG
modifications: full-length
B2: Q6GMV3 (protein, UniProt Q6GMV3 1-140, looked up)
chain: MHRGVGPAFRVVRKMAASGAEPQVLVQYLVLRKDLSQAPFSWPAGALVAQACHAATAALHTHRDHPHTAAYLQELGRMRKVVLEAPDETTLKELAETLQQKNIDHMLWLEQPENIATCIALRPYPKEEVGQYLKKFRLFK
modifications: full-length
B3: A8MUU1 (protein, UniProt A8MUU1 1-101, looked up)
chain: MGAMAKPDCIITCDSKNLTIKTESTLKTTQFSGTLGEKFEENTADGRRTQTVCNFTDGALVQHQEWDGKESTITRKLKDGKLVVERVMNHVACTRIYEKAQ
modifications: full-length
B4: O75323 (protein, UniProt O75323 1-286, looked up)
chain: MAARVLRARGAAWAGGLLQRAAPCSLLPRLRTWTSSSNRSREDSWLKSLFVRKVDPRKDAHSNLLAKKETSNLYKLQFHNVKPECLEAYNKICQEVLPKIHEDKHYPCTLVGTWNTWYGEQDQAVHLWRYEGGYPALTEVMNKLRENKEFLEFRKARSDMLLSRKNQLLLEFSFWNEPVPRSGPNIYELRSYQLRPGTMIEWGNYWARAIRFRQDGNEAVGGFFSQIGQLYMVHHLWAYRDLQTREDIRNAAWHKHGWEELVYYTVPLIQEMESRIMIPLKTSPLQ
modifications: full-length
B5: Q6DN03 (protein, UniProt Q6DN03 1-193, looked up)
chain: MPEPAKFAPAPKKGSKKAVTKAQKKDGKKRKRSRKESYSIYVYKVLKRVHPDTGIWCKAMGIMNSFLNDIFERIAGEASRLAHYNKRSTITSRRSRRPCACCCPASWPSTPCPRAPRRSPSTPAPSESLPGPGARSLPPSLPPRVAGCFVSKGSFQGHLTTSVKESFLCCQSQLMFLASRLVNFRRAHNTKHR
modifications: full-length
B6: Q9NVS9 (protein, UniProt Q9NVS9 1-261, looked up)
chain: MTCWLRGVTATFGRPAEWPGYLSHLCGRSAAMDLGPMRKSYRGDREAFEETHLTSLDPVKQFAAWFEEAVQCPDIGEANAMCLATCTRDGKPSARMLLLKGFGKDGFRFFTNFESRKGKELDSNPFASLVFYWEPLNRQVRVEGPVKKLPEEEAECYFHSRPKSSQIGAVVSHQSSVIPDREYLRKKNEELEQLYQDQEVPKPKSWGGYVLYPQVMEFWQGQTNRLHDRIVFRRGLPTGDSPLGPMTHRGEEDWLYERLAP
modifications: full-length
B7: Q9UFN0 (protein, UniProt Q9UFN0 1-247, looked up)
chain: MLVLRSALTRALASRTLAPQMCSSFATGPRQYDGIFYEFRSYYLKPSKMNEFLENFEKNAHLRTAHSELVGYWSVEFGGRMNTVFHIWKYDNFAHRTEVRKALAKDKEWQEQFLIPNLALIDKQESEITYLVPWCKLEKPPKEGVYELATFQMKPGGPALWGDAFKRAVHAHVNLGYTKLVGVFHTEYGALNRVHVLWWNESADSRAAGRHKSHEDPRVVAAVRESVNYLVSQQNMLLIPTSFSPLK
modifications: full-length
B8: Q9Y570 (protein, UniProt Q9Y570 1-386, looked up)
chain: MSALEKSMHLGRLPSRPPLPGSGGSQSGAKMRMGPGRKRDFSPVPWSQYFESMEDVEVENETGKDTFRVYKSGSEGPVLLLLHGGGHSALSWAVFTAAIISRVQCRIVALDLRSHGETKVKNPEDLSAETMAKDVGNVVEAMYGDLPPPIMLIGHSMGGAIAVHTASSNLVPSLLGLCMIDVVEGTAMDALNSMQNFLRGRPKTFKSLENAIEWSVKSGQIRNLESARVSMVGQVKQCEGITSPEGSKSIVEGIIEEEEEDEEGSESISKRKKEDDMETKKDHPYTWRIELAKTEKYWDGWFRGLSNLFLSCPIPKLLLLAGVDRLDKDLTIGQMQGKFQMQVLPQCGHAVHEDAPDKVAEAVATFLIRHRFAEPIGGFQCVFPGC
modifications: full-length
B9: Q96A00 (protein, listed as Homo sapiens)
chain: MAAQRLGKRVLSKLQSPSRARGPGGSPGGLQKRHARVTVKYDRRELQRRLDVEKWIDGRLEELYRGMEADMPDEINIDELLELESEEERSRKIQGLLKSCGKPVEDFIQELLAKLQGLHRQPGLRQPSPSHDGSLSPLQDRARTAHP
B10: A6NEC2 (protein, UniProt A6NEC2 1-478, looked up)
chain: MWLAAAAPSLARRLLFLGPPPPPLLLLVFSRSSRRRLHSLGLAAMPEKRPFERLPADVSPINCSLCLKPDLLDFTFEGKLEAAAQVRQATNQIVMNCADIDIITASYAPEGDEEIHATGFNYQNEDEKVTLSFPSTLQTGTGTLKIDFVGELNDKMKGFYRSKYTTPSGEVRYAAVTQFEATDARRAFPCWDERAIKATFDISLVVPKDRVALSNMNVIDRKPYPDDENLVEVKFARTPVTSTYLVAFVVGEYDFVETRSKDGVCVCVYTPVGKAEQGKFALEVAAKTLPFYKDYFNVPYPLPKIDLIAIADFAAGAMENWDLVTYRETALLIDPKNSCSSSRQWVALVVGHELAHQWFGNLVTMEWWTHLRLNEGFASWIEYLCVDHCFPEYDIWTQFVSADYTRAQELDALDNSHPIEVSVGHPSEVDEIFDAISYSKGASVIRMLHDYIGDKDFKKGMNMYLTKFQQKNAAAGNL
modifications: full-length
B11: Q9P2E7 (protein, UniProt Q9P2E7 1-1040, looked up)
chain: MIVLLLFALLWMVEGVFSQLHYTVQEEQEHGTFVGNIAEDLGLDITKLSARGFQTVPNSRTPYLDLNLETGVLYVNEKIDREQICKQSPSCVLHLEVFLENPLELFQVEIEVLDINDNPPSFPEPDLTVEISESATPGTRFPLESAFDPDVGTNSLRDYEITPNSYFSLDVQTQGDGNRFAELVLEKPLDREQQAVHRYVLTAVDGGGGGGVGEGGGGGGGAGLPPQQQRTGTALLTIRVLDSNDNVPAFDQPVYTVSLPENSPPGTLVIQLNATDPDEGQNGEVVYSFSSHISPRARELFGLSPRTGRLEVSGELDYEESPVYQVYVQAKDLGPNAVPAHCKVLVRVLDANDNAPEISFSTVKEAVSEGAAPGTVVALFSVTDRDSEENGQVQCELLGDVPFRLKSSFKNYYTIVTEAPLDREAGDSYTLTVVARDRGEPALSTSKSIQVQVSDVNDNAPRFSQPVYDVYVTENNVPGAYIYAVSATDRDEGANAQLAYSILECQIQGMSVFTYVSINSENGYLYALRSFDYEQLKDFSFQVEARDAGSPQALAGNATVNILIVDQNDNAPAIVAPLPGRNGTPAREVLPRSAEPGYLLTRVAAVDADDGENARLTYSIVRGNEMNLFRMDWRTGELRTARRVPAKRDPQRPYELVIEVRDHGQPPLSSTATLVVQLVDGAVEPQGGGGSGGGGSGEHQRPSRSGGGETSLDLTLILIIALGSVSFIFLLAMIVLAVRCQKEKKLNIYTCLASDCCLCCCCCGGGGSTCCGRQARARKKKLSKSDIMLVQSSNVPSNPAQVPIEESGGFGSHHHNQNYCYQVCLTPESAKTDLMFLKPCSPSRSTDTEHNPCGAIVTGYTDQQPDIISNGSILSNETKHQRAELSYLVDRPRRVNSSAFQEADIVSSKDSGHGDSEQGDSDHDATNRAQSAGMDLFSNCTEECKALGHSDRCWMPSFVPSDGRQAADYRSNLHVPGMDSVPDTEVFETPEAQPGAERSFSTFGKEKALHSTLERKELDGLLTNTRAPYKPPYLTRKRIC
modifications: full-length
B12: Q96S59 (protein, UniProt Q96S59 1-729, looked up)
chain: MSGQPPPPPPQQQQQQQQLSPPPPAALAPVSGVVLPAPPAVSAGSSPAGSPGGGAGGEGLGAAAAALLLHPPPPPPPATAAPPPPPPPPPPPASAAAPASGPPAPPGLAAGPGPAGGAPTPALVAGSSAAAPFPHGDSALNEQEKELQRRLKRLYPAVDEQETPLPRSWSPKDKFSYIGLSQNNLRVHYKGHGKTPKDAASVRATHPIPAACGIYYFEVKIVSKGRDGYMGIGLSAQGVNMNRLPGWDKHSYGYHGDDGHSFCSSGTGQPYGPTFTTGDVIGCCVNLINNTCFYTKNGHSLGIAFTDLPPNLYPTVGLQTPGEVVDANFGQHPFVFDIEDYMREWRTKIQAQIDRFPIGDREGEWQTMIQKMVSSYLVHHGYCATAEAFARSTDQTVLEELASIKNRQRIQKLVLAGRMGEAIETTQQLYPSLLERNPNLLFTLKVRQFIEMVNGTDSEVRCLGGRSPKSQDSYPVSPRPFSSPSMSPSHGMNIHNLASGKGSTAHFSGFESCSNGVISNKAHQSYCHSNKHQSSNLNVPELNSINMSRSQQVNNFTSNDVDMETDHYSNGVGETSSNGFLNGSSKHDHEMEDCDTEMEVDSSQLRRQLCGGSQAAIERMIHFGRELQAMSEQLRRDCGKNTANKKMLKDAFSLLAYSDPWNSPVGNQLDPIQREPVCSALNSAILETHNLPKQPPLALAMGQATQCLGLMARSGIGSCAFATVEDYLH
modifications: full-length
B13: Q9H853 (protein, UniProt Q9H853 1-241, looked up)
chain: MRHQQTERQDPSQPLSRQHGTYRQIFHPEQLITGKEDAANNYAWGHYTIGKEFIDLLLDRIRKLADQCTGLQGFLVFHSLGRGTGSDVTSFLMEWLSVNYGKKSKLGFSIYPAPQVSTAMVQPYNSILTTHTTLEHSDCAFMVDNKAIYDICHCNLDIERPTYTNLNRLISQIVSSITASLRFDGALNVDLTEFQTNLVSYLTSTSPWPPMHQSSLQKRYTTSSCWWQRLPMPALSLPTRW
modifications: full-length
B14: Q5VTE0 (protein, UniProt Q5VTE0 1-462, looked up)
chain: MGKEKTHINIVVIGHVDSGKSTTTGHLIYKCGGIDKRTIEKFEKEAAEMGKGSFKYAWVLDKLKAERERGITIDISLWKFETSKYYVTIIDAPGHRDFIKNMITGTSQADCAVLIVAAGVGEFEAGISKNGQTREHALLAYTLGVKQLIVGVNKMDSTEPPYSQKRYEEIVKEVSTYIKKIGYNPDTVAFVPISGWNGDNMLEPSANMPWFKGWKVTRKDGNASGTTLLEALDCILPPTRPTDKPLRLPLQDVYKIGGIGTVPVGRVETGVLKPGMVVTFAPVNVTTEVKSVEMHHEALSEALPGDNVGFKVKNVSVKDVRRGNVAGDSKNDPPMEAAGFTAQVIILNHPGQISAGYAPVLDCHMAHIACKFAELKEKIDRRSGKKLEDGPKFLKSGDAAIVDMVPGKPMCVESFSDYPPLGRFAVRDMRQTVAVGVIKAVDKKAAGAGKVTKSAQKAQKAK
modifications: full-length
B15: Q9BPW8 (protein, UniProt Q9BPW8 1-284, looked up)
chain: MAPRLCSISVTARRLLGGPGPRAGDVASAAAARFYSKDNEGSWFRSLFVHKVDPRKDAHSTLLSKKETSNLYKIQFHNVKPEYLDAYNSLTEAVLPKLHLDEDYPCSLVGNWNTWYGEQDQAVHLWRFSGGYPALMDCMNKLKNNKEYLEFRRERSQMLLSRRNQLLLEFSFWNEPQPRMGPNIYELRTYKLKPGTMIEWGNNWARAIKYRQENQEAVGGFFSQIGELYVVHHLWAYKDLQSREETRNAAWRKRGWDENVYYTVPLVRHMESRIMIPLKISPLQ
modifications: full-length

Assay: TMTcalibrator quantification of regulated proteins in AD CSF versus control
Parameters: species or system human
Conditions: CSF of AD patient versus control; non-modified peptides of each protein summed for three control and three AD cases

| Molecule | Log2 AD/Control |
| --- | --- |
| B1 | 1.07 |
| B2 | 0.67 |
| B3 | 0.80 |
| B4 | 1.61 |
| B5 | 1.09 |
| B6 | 0.81 |
| B7 | 0.73 |
| B8 | 1.08 |
| B9 | 0.70 |
| B10 | 0.69 |
| B11 | 0.78 |
| B12 | 0.69 |
| B13 | 0.69 |
| B14 | 1.30 |
| B15 | 0.80 |
